The campaign covered roughly 400,000 compounds. About 3,700 (0.93%) were called active. Inconclusive results, whose numbers are uncertain, are shown with a selection of clear calls. Calls come from the whole dose curve; as a rule, active = well fitted inhibition curve with a large enough effect; inconclusive = small, poorly fitted or top-dose-only effect, or another doubt; inactive = no such curve, though single readings can be large or run the other way. A potency beside an inconclusive call is a rough fit, not a confirmed value.
Biological target: Vitamin D3 receptor (Homo sapiens) (UniProt P11473)
Test: Inhibitors of the vitamin D receptor (VDR): qHTS
Conditions: VDR-SRC2-3 peptide fluorescence polarization, 2 h; max response, negative = inhibition: active compounds read low
Outline: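 Fluorescence polarization assay measuring small-molecule disruption of VDR binding to the coregulator peptide SRC2-3. Compounds were pin-transferred (23 nl) into the reagent mix and incubated 2 h at room temperature before reading.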
% is set by controls: 0 for no effect and ±100 for the full control effect; potency is the fitted concentration of half-maximal effect.

Sequences of proteins named here, by UniProt entry; tags and fusion partners are left off. A change or cut given only in a name is not applied to a line headed by its entry.
UniProt P11473: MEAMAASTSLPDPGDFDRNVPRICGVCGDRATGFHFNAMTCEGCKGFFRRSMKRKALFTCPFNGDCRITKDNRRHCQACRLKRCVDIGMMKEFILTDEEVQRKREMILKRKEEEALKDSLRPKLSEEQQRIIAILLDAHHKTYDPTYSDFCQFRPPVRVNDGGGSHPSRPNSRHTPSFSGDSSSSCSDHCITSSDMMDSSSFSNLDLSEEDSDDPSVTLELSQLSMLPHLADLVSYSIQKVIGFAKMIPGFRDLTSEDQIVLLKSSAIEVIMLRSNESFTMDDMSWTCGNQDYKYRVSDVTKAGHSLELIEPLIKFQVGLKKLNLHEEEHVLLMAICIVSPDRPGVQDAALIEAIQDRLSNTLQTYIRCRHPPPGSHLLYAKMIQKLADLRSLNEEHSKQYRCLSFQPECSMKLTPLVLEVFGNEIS

SMILES	Potency	max response, negative = inhibition
N#C/C(=N\Nc1ccc(S(=O)(=O)N2CCCCC2)cc1)C(N)=S	inconclusive: 70.8 µM [inhibitor, single point]	
COc1ccc(OC)c(Nc2nc(=O)c3cccnc3s2)c1	active: 44.7 µM	
CC1CCC/C=C/C(=O)c2c(O)cc(O)cc2CC(=O)O1 (stereo unspecified)	inconclusive: 56.2 µM [inhibitor, partial curve, poor fit]	
CCCCCCCCCCCCCCCC(=O)OC[C@H](O)[C@H]1OC[C@@H](O)[C@@H]1O		inactive: 4.94%
CCOC(=O)C1=C(Cn2cnc3ccccc32)NC(=O)NC1c1ccc(Cl)cc1 (stereo unspecified)	inconclusive: 44.7 µM [inhibitor, partial curve]	
CC(C)(C)N(NS(=O)(=O)c1ccc(F)cc1)c1ccccc1	active: 44.7 µM	
O=C(N/N=C/C=C/c1ccco1)/C(=C/c1ccccc1)NC(=O)c1ccccc1	inconclusive: 70.8 µM [inhibitor, partial curve, poor fit]	
COc1ccccc1NC(=O)c1cccc2c(Br)cccc12	inconclusive: 70.8 µM [inhibitor, partial curve, poor fit]	
CCN1CCSc2ccc(C(=O)NCc3ccc(F)cc3)cc21		inactive: -12.3%
COc1ccccc1NC(=O)/C=C\c1ccco1	inconclusive: 2.82 µM [inhibitor, partial curve, poor fit]	
O=C(COC(=O)CCc1nc2ccccc2n1-c1ccccc1)Nc1ccc(N2CCCCC2)cc1		inactive: 0.706%
CC(=O)c1c(C)n(S(=O)(=O)c2ccc(Cl)cc2)c2ccc(NS(=O)(=O)c3ccc(Cl)cc3)cc12	active: 79.4 µM	
O=C(O)c1ccc(-c2ccc(/C=C3\NC(=O)N(Cc4ccc(Cl)cc4)C3=O)o2)cc1Cl	active: 79.4 µM	
COc1ccc(C(=O)N2CCC[C@@]3(CCN(Cc4ccncc4)C3)C2)cc1	inconclusive: 89.1 µM [inhibitor, single point]	
C/C=C/COC(=O)c1[nH]c2c(c1C)C(=O)CC(c1ccco1)C2 (stereo unspecified)	inconclusive: 89.1 µM [inhibitor, single point]	
O=C(O/N=C/c1ccc(Cl)cc1)C1CCCCC1	inconclusive: 79.4 µM [inhibitor, single point]	
O=C(CNC(c1ccccc1)c1ccccc1)Nc1ccccc1-c1ccccc1	inconclusive: 8.91 µM [inhibitor, full curve, poor fit]	
Cc1c(C(C)(C)C)c(C=S)n2ccccc12		inactive: -18.3%
COc1ccc(C(=O)/C(=C\c2ccco2)N2C=CC=CC2=C(C#N)C#N)cc1	active: 39.8 µM	
O=c1cc(CN2CCCCCC2)nc2sccn12	inconclusive: 79.4 µM [inhibitor, partial curve]	
COc1ccc(/C=N/NC(=O)c2[nH]c3ccc(Cl)cc3c2-c2ccccc2)c(C(=O)O)c1OC	inconclusive: 89.1 µM [inhibitor, single point]	

For convenience, part of the list above.
SMILES	Potency	max response, negative = inhibition
O=C(O)c1ccc(-c2ccc(/C=C3\NC(=O)N(Cc4ccc(Cl)cc4)C3=O)o2)cc1Cl	active: 79.4 µM	
COc1ccc(C(=O)N2CCC[C@@]3(CCN(Cc4ccncc4)C3)C2)cc1	inconclusive: 89.1 µM [inhibitor, single point]	

(continued)

SMILES	Potency	max response, negative = inhibition
CC(C)NC(=O)[C@]1(C)CCC[C@@]2(C)C3CC[C@@]4(C)C[C@]3(CCC21)CC4=O (stereo partly specified)	inconclusive: 100 µM [inhibitor, single point]	
COC(=O)C1=C(C)NC(=O)NC1c1ccc(N2CCC(c3ccccc3)=N2)cc1 (stereo unspecified)	inconclusive: 89.1 µM [inhibitor, single point]	
N#C/C(=C\c1ccc(OCc2cccc(C(=O)O)c2)cc1)C(=O)NCc1ccco1	inconclusive: 56.2 µM [inhibitor, partial curve, poor fit]	
Cc1ccc(C(=O)Nc2nc(=O)n(C(=O)CC(C)C)s2)cc1	inconclusive: 70.8 µM [inhibitor, partial curve, poor fit]	
CC(C)(C)CC(C)(C)c1ccc(O)c(Cc2ccc(Cl)cc2Cl)c1	inconclusive: 56.2 µM [inhibitor, partial curve, poor fit]	
c1cncc(CNc2ncnc3ccc(-c4ccoc4)cc23)c1	inconclusive: 44.7 µM [inhibitor, partial curve]	
COc1ccc(NS(=O)(=O)c2ccc(OC)c(OC)c2)cc1OC	inconclusive: 89.1 µM [inhibitor, partial curve, poor fit]	
Cc1ccc(-n2nnc3c(sc4nc(C)c(C)cc43)c2=O)cc1Cl		inactive: -2.97%
Cc1ccc(S(=O)(=O)N2CCN(C(=O)COC(=O)/C=C/c3ccccc3[N+](=O)[O-])CC2)c(C)c1		inactive: -9.22%
O=C(c1cnccn1)N1CCC2(CCCN(Cc3ccccc3)C2)CC1	inconclusive: 89.1 µM [inhibitor, single point]	
COC(=O)c1c(N2C(=O)CC(Sc3ccccc3C(=O)O)C2=O)sc(C)c1C (stereo unspecified)	inconclusive: 89.1 µM [inhibitor, single point]	
O=C1C(CCC(O)c2ccc(F)cc2)C(c2ccc(O)cc2)N1c1ccc(F)cc1 (stereo unspecified)	inconclusive: 89.1 µM [inhibitor, partial curve, poor fit]	
CC(=O)Nc1ccc(Sc2ccc([N+](=O)[O-])o2)cc1	inconclusive: 25.1 µM [inhibitor, partial curve, poor fit]	
NS(=O)(=O)c1ccc(NC(=O)CCn2c(=O)oc3ccccc32)cc1		inactive: -7.73%
Cn1cc(C2CC(c3ccccc3)=NN2C(=O)c2ccccc2)c2ccccc21 (stereo unspecified)	inconclusive: 89.1 µM [inhibitor, single point]	
COc1ccc(C2=CC3=C(Br)C(=O)C(C)(OC(=O)c4ccco4)C(=O)C3=CO2)cc1 (stereo unspecified)	active: 79.4 µM	
CCOc1ccc(/C=N/OCC(=O)NCc2ccco2)cc1	inconclusive: 70.8 µM [inhibitor, partial curve]	
CN1C(=O)/C(=N\OC(=O)c2ccccc2Cl)c2ccccc21	inconclusive: 50.1 µM [inhibitor, partial curve, poor fit]	
CCOc1ccc(-n2cc(C(=O)NC(C)C)c3cc(OC)c(OC)cc3c2=O)cc1	inconclusive: 39.8 µM [inhibitor, single point]	
CC1=NN(c2ccc(C(=O)O)cc2)C(=O)/C1=C\c1ccc(OC(=O)c2cccs2)cc1	inconclusive: 35.5 µM [inhibitor, single point]	

Source: PubChem BioAssay AID504847 (National Center for Advancing Translational Sciences (NCATS), 2011)
